These results are taken from PubChem BioAssay AID1347423 (Functional Genomics Laboratory (NCATS/FGL), 2020).

Out of some 52,000 sequences screened, about 210 (0.4%) were called active.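 The calls were made as follows: active = gene whose silencing raises cell survival under the drug, median off-target-corrected z-score across its silencing RNAs 2 or more; inactive = the rest.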 The list shows a part of the results.

The assay is described as follows: Resistance to Poly (ADP-Ribose) Polymerase inhibitor: Gene Identification via Genome-wide siRNA Screen. The conditions noted are these: mouse BRCA2 R2336H ES cells, olaparib, CellTiter-Glo viability; active compounds read high. The method, boiled down: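 Mouse BRCA2 R2336H ES cells were reverse-transfected with siRNA (20 nM final), treated at 48 h with 500 nM olaparib, and read by CellTiter-Glo after 72 h. Scores: MAD-based z per siRNA, median per gene, seed off-target correction.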
Background: In ATP-based viability assays light output follows the ATP content of the culture.
Consider GGGAUAAUGAUGCAACUAATT against T2R37, for which the z-score was inactive: -0.663.
For the sequence GGAGCACAAUAGUAAACUATT against Rpo1-4, the z-score was inactive: -2.5.
As for GGCACCAUACUGGACAUACTT against Chpt1, the z-score is inactive: -0.354.
In the case of “CCAUAGACUAUUAUCCUUATT against E030041M21Rik”, the z-score is inactive: 0.663.
On to GGUGGUUGGUACCUACAAUTT against D11Lgp1e, for which the z-score was inactive: -2.1.
Take “GGAACAAGAACAAAAAGCATT against 0610040D20Rik”: the z-score is inactive: -0.89.
On to GCAAGAACUCGCUGAUCCATT against Frap1, for which the z-score is inactive: -3.06.
In the case of GGAGGCAUGCCCUAUGAAUTT against Zfp11, the z-score was inactive: -0.395.
On to GCCAACUCGAACAUUUUGATT against Suhw2, for which the z-score was inactive: 1.83.
GGAAGAUGAGGAGAAAGACTT against Rin3: the z-score was inactive: -0.678.
Turning to GGACGCAGACAGGACAAAATT against Adprtl2, the z-score is inactive: -0.31.
In the case of GGAUGAAAAAUACUGGUGUTT against Ugt8, the z-score is inactive: 3.17.
CCCGUCUCUUAAUCUGUUGTT against Ptprr: the z-score was inactive: -0.801.
As for GGAAAACCACAAAACAUGATT against Muc20, the z-score was inactive: 1.43.
In the case of “CCCUUAAUGAGACAAGGCATT against A630023P12Rik”, the z-score was inactive: -0.184.
Turning to GGCACAAUUGAUCCUUUUUTT against Bk, the z-score is inactive: 0.0195.
Under CCCAACAUAUUUUUUAGCATT against Hmgcll1 stands inactive: 0.175; under GGCUUUUUCCUAAACUUGGTT against Nt5c, inactive: 0.935.
Under GCCUGUGAUCUUUUGUAUCTT against Olfr835 stands inactive: -0.000737; under “GCUCGAGUGUAAGAUCUGUTT against C630023L15Rik”, inactive: 0.244; under GUUAUCUGGAUAUCCUAUATT against Olfr1469, inactive: 0.34.
GGCAGAUGAUGGUCCAUGCTT against Tfpi: the z-score is inactive: -0.948.
As for GGCAAAAAGGACGUGAACCTT against Cblc, the z-score was inactive: 1.37.
For the sequence CCUGAUUAGCAGAGACUUGTT against Col23a1, the z-score is inactive: -3.15.
Regarding GCAGAACCAACAUGGCCGUTT against Polr3b, the z-score was inactive: -0.847.
In the case of “CCUCUCUACAUAAAGUGCATT against 0610009B10Rik”, the z-score was inactive: 0.0965.
For the sequence GGCUCUCAAUGAUCAUCAUTT against Aldob, the z-score is inactive: -0.791.
To “GGUAGCGAUGUUUUCUUAUTT against C630002B14Rik” belongs inactive: 0.0373; to GGAGCUGCUCAUGUAUUCCTT against Gnb2, inactive: 0.0561.
Take GCAUUAGUGGACAUGUAUCTT against Slc6a13: the z-score is inactive: 1.05.
Turning to GGAAGUGCUGCACAUACUATT against Bnc2, the z-score is inactive: -0.913.
With CGGUUGUGUGAGUAAAAUUTT against Pax6, the z-score was inactive: -1.17.
Turning to GCUCAUAGAGACAAUUGCATT against Olfr822, the z-score was inactive: -1.18.
Regarding GCAAUGUGUAUGGUAUCUUTT against Tas2r121, the z-score was inactive: -0.177.
For CCUAAAGGAAGGUUUCCAUTT against Cacng4, the z-score was inactive: 0.151.
For GGUUUCGAGAAAACAACAATT against D4Wsu114e, the z-score is inactive: 0.206.
As for GGAUUUGCUCACGGAACCATT against Olfr1230, the z-score was inactive: -1.49.
Take “GGUAAAACCGUUUUUGACATT against 2410003C20Rik”: the z-score is inactive: -0.268.
Under GGCGCAUAGCAUUUGACAUTT against Fbxl13 stands inactive: 1.2; under GGAGAUCCUGGGUACUGCATT against Rpl12, inactive: -3.08; under “GCCCUUUGGAAGAAUACUCTT against 2310061A22Rik”, inactive: 1.99.
Under GGCUAUGAACUCUUAUUUCTT against Catns stands inactive: 2.05; under GGCUCUUACAUGAAAUGAUTT against Copb1, inactive: -1.88; under CCAUCUUGGAGAUCCUGAUTT against Htatip, inactive: -2.23.
For the sequence GCCUGUGCAAAAGAGAUUUTT against Gata3, the z-score was inactive: 1.17.
To GGAAAGUUGCACUAUUAUCTT against Ide belongs inactive: 2.8.
Under GGAACAAUGGGUUCAUUUUTT against Ifi203 stands inactive: -0.261; under GUGGUAAACAGAAUGGUGATT against LOC432582, inactive: 1.81.
On to CGACAACAAUCUGGCCUAUTT against Ap2s1, for which the z-score was inactive: 1.63.
For the sequence GGCAGCAGCACUGAUUACUTT against Gja12, the z-score is inactive: -0.551.
Take “GGGAGAUGGGUUUGUGUAATT against 9030607L17Rik”: the z-score is inactive: -1.16.
For GGAGCUGAUGACUUCAGGCTT against Mmp19, the z-score was inactive: 1.18.
To GGAUCUGGUGACAAACGUATT against Cabyr belongs inactive: 1.08; to GGAUCGGUGAGAUUGUAGCTT against MGC49146, inactive: -1.4; to “GGAGAAAUGAAAAAACAGUTT against 1110014L17Rik”, inactive: 0.441.
As to GGCACACUUAAGUAAAAGUTT against Kras2, the z-score was inactive: 0.429.
In the case of GGUCGUGAGCUUUAUGAGATT against Myo1d, the z-score was inactive: 0.628.
With “GCAUCAUCGUUUUUGGAAATT against A530082C11Rik”, the z-score was inactive: -0.043.
As to GCAUUAGGAAAGUAAUAAGTT against Olfr11, the z-score was inactive: 0.00932.
In the case of GAUGCUGGUUGACCUCCUATT against Olfr368, the z-score was inactive: -1.57.
Under GCUGAUUGUCAAGGAAUAUTT against Tspyl1 stands inactive: -1.76.
Under “GGCGGACGUGAAGAACUUGTT against 1110019O13Rik” stands inactive: 1.13; under “GCCCUGAAAUAGAAGUUGGTT against A930024E05Rik”, inactive: 1.48; under UGCCUCAAUCAUAAGUCCCTT against Olfr730, inactive: -2.07.
To GGACUUCACAAUUUAAGUUTT against Il5 belongs inactive: -0.628.
On to “GGUUGUAAUAGCCUUAGCCTT against 5133400D11Rik”, for which the z-score is inactive: 0.845.
